Experimental findings from PMC4154660 are described below.

Chains of the proteins cited; added tags and fusions are not shown.
UniProt F7VVV0: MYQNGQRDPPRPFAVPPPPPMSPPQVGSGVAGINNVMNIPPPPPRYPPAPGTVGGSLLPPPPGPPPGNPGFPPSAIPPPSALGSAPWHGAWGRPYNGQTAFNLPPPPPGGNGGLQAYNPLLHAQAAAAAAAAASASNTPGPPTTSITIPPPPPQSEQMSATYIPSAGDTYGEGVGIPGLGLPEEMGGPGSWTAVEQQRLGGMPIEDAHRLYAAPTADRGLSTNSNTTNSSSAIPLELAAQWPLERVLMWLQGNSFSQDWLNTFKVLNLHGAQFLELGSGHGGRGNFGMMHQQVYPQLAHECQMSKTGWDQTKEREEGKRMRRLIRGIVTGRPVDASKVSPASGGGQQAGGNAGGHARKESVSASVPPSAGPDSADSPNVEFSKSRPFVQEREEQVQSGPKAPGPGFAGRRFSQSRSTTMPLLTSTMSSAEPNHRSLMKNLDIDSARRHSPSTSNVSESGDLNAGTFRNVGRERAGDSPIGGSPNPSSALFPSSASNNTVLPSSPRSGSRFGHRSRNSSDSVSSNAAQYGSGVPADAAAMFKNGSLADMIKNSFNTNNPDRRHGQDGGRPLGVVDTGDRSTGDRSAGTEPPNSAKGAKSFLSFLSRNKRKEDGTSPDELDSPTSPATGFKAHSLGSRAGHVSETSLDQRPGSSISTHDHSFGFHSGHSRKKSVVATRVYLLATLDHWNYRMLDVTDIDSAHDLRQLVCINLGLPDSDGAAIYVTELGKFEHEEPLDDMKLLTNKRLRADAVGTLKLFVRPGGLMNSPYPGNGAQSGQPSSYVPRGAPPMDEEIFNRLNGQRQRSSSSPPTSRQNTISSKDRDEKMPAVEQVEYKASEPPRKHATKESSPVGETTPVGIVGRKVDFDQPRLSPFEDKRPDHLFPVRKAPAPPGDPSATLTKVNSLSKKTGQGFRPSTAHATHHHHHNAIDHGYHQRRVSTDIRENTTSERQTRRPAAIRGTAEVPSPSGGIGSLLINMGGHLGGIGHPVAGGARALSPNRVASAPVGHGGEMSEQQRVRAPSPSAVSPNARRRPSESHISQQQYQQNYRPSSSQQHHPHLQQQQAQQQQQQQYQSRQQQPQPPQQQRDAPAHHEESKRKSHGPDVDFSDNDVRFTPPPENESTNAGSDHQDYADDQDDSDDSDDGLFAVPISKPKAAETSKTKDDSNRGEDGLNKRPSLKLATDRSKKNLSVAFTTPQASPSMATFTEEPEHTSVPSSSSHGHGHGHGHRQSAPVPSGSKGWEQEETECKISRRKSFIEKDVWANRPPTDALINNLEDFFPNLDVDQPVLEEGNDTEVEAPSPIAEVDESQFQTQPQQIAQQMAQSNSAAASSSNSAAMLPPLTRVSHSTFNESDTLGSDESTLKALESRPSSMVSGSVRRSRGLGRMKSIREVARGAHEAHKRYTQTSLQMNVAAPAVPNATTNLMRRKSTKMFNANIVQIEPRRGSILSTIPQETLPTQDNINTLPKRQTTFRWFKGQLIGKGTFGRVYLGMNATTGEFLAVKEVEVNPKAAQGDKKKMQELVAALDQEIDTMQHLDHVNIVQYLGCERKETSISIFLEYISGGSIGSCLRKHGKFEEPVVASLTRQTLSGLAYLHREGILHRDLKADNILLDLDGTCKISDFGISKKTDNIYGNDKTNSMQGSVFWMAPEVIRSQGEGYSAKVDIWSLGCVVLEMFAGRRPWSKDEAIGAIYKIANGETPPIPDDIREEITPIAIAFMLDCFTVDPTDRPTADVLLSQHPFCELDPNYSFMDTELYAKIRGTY

Experiment [1] addresses MIK1 (yeast two-hybrid, full length) (Sordaria macrospora) (UniProt F7VVV0). Description: two-hybrid; reciprocal matrix of GAL4-AD and -BD fusions in diploid yeast, drop-plated on SD lacking leucine, tryptophan, histidine and adenine.
The target of experiment [2] is PKC1 (yeast two-hybrid, full length) (Sordaria macrospora) (UniProt F7W233). Described as above.

Results are given in words; binding and its absence hold for the method and conditions named. Some binding calls cover weakened binding; strength is not graded here.

As for “MIK1 (yeast two-hybrid, full length) (from UniProt F7VVV0 1-1764) (enzyme)”, the binding result in experiment [1] is “binds”.

B1: PKC1 (yeast two-hybrid, full length) (enzyme, UniProt F7W233 1-1146)
chain: MNDEDKVHDISKKIEREKALINAAQAMRQQTNNEQVRSKLDTQMREGRRNLEFFEEKLRELQMRRLGHGVDNMSLGASPMSGSHRQSVDDFEGHGAPTPPPKEGGRGHSSHQSQGSGPLMPASGPYPGGPPDSAVPRARPNYTRLDLIKFDTPHLGPRIQLMLSQIQFKLNVEEQYLKGIEKMVQLYQMEGDKKSKLDAAAKRVESKQKIVLLKQALKRYEELHIDIDVDGPDDDSINLPALRKPLSGTLSIRILAVKDVDHAPLGRFARSPETFIAVKAEDIIVARTRPSRNDRWEAEFHTFPVDKTNEIEFTVYDKPSEHPVPIAMLWVRISDIVEELRRKKIEAEMTSAGWVSADRVGSRAPPPQFPMGTQSPQFAAPPTSPGSQEQNIMIPPQAPPPSQVVSQPVDGWFNLEPYGQIHLSFNFMKESRPQGMDRLGRKGAVRQRKEEVHEMYGHKFVQKQFYNIMRCALCGDFLKYSAGMQCEDCKYTCHTKCYTSVVTKCISKSNAETDPDEEKINHRIPHRFIPFSNLTANWCCHCGYMLPIGSKKNSRKCSECALTAHAQCVHLVPDFCGMSMAVANQILEGIRTQKKTHKDKASSMSERTLRPGSKTSFSSGSIAQTSTYSGSTAYTSIASPEATEAAKLMYSQTTPRPAGPDRTSTSSTTASAAAAAAMAPKHSSQPSQAGSIPDFGGNYGGSGSYGHPESREDEYNAQQQQGYGSPQQRKYNPADYANIGAYSSPPQAQHPQQQQQQQSPQQVSPMYQQNPQTPISKPQPVAPSYDNQVVPSASGVPVPTKKPLPSATDPGTGMRIGLDHFNFLAVLGKGNFGKVMLAETKKSRKLYAIKVLKKEFIIENDEVESIRSEKRVFLIANRERHPFLTNLHACFQTETRVYFVMEYISGGDLMLHIQRGMFGTKRAQFYAAEVCLALKYFHENGVIYRDLKLDNILLTLDGHIKIADYGLCKEDMWYGSTTSTFCGTPEFMAPEILLDKKYGRAVDWWAFGVLIYQMLLQQSPFRGEDEDEIYDAILADEPLYPIHMPRDSVSILQKLLTREPDQRLGSGPTDAQEIMSQPFFRNINWDDIYHKRVQPPFLPQIKSATDTSNFDSEFTSVTPVLTPVQSVLSQAMQEEFRGFSYTADFE
Regarding B1, the binding result in experiment [2] is listed as “binds”.
